The assay addresses Proline rich coiled-coil 2A (PRRC2A) with a 3×flag tag, from Prrc2a-flag knock-in mice (mouse) (UniProt Q7TSC1). In words: affinity purification with mass spectrometry; eight P20 Prrc2a-flag and wild-type testes; anti-Flag on Protein G magnetic beads; eluted with 0.2 mg/mL Flag peptide in NT2 buffer; SDS-PAGE, silver staining, in-gel trypsin digestion, LTQ Orbitrap Velos.

By UniProt entry, the sequences of proteins in these tests, tags left out.
UniProt Q7TSC1: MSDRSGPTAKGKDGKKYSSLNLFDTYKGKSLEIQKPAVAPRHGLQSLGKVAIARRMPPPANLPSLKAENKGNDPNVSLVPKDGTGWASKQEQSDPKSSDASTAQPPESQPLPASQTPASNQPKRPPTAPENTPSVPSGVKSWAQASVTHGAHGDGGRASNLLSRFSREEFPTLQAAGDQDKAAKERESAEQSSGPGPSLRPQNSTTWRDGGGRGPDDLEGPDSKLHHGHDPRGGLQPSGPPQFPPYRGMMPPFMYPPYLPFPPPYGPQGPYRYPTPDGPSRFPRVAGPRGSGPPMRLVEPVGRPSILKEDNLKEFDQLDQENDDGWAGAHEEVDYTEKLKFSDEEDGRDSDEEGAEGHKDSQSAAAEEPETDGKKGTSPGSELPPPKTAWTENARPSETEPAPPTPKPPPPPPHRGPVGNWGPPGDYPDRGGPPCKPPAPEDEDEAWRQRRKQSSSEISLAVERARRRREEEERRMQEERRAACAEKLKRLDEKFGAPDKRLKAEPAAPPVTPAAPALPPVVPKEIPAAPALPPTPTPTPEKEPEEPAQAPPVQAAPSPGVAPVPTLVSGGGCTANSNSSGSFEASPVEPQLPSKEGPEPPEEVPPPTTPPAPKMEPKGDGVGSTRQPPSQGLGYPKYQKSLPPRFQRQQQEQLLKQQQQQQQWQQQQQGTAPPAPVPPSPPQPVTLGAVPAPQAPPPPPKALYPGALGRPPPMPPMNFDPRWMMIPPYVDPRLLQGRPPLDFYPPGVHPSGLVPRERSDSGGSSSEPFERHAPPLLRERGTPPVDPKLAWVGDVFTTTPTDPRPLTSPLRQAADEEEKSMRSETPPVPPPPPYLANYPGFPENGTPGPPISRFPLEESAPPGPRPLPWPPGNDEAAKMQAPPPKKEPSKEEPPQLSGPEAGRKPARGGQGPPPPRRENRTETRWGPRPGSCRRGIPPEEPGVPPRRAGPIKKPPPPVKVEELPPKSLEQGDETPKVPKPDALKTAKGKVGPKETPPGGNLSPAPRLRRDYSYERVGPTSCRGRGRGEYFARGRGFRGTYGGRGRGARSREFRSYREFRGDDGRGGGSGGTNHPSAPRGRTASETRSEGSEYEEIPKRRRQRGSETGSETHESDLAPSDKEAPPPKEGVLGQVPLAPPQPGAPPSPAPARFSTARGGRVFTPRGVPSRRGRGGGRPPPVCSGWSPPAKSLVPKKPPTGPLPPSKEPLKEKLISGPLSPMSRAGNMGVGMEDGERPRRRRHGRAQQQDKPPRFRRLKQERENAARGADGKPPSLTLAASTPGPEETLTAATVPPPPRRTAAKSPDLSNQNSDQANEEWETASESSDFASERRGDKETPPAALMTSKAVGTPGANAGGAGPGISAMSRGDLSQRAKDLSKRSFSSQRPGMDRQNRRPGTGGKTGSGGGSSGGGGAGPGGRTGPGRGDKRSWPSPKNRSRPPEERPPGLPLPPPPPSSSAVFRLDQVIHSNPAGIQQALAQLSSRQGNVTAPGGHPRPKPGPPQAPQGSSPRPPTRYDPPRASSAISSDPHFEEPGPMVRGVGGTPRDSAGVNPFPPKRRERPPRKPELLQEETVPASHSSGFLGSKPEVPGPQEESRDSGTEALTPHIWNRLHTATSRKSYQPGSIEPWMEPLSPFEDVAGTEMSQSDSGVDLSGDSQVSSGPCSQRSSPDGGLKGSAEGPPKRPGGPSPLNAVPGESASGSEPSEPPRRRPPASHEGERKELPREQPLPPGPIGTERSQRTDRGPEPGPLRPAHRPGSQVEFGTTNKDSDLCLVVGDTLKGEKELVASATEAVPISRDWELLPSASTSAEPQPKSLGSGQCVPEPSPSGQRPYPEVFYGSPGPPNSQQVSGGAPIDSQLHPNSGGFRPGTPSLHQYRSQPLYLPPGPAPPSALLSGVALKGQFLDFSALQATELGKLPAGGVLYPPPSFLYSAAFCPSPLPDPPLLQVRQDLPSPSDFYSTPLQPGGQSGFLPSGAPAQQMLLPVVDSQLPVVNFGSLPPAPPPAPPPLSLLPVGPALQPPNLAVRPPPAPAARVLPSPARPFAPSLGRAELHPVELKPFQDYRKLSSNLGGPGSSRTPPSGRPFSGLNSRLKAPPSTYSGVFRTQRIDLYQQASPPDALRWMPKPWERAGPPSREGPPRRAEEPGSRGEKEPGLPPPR
UniProt Q61584: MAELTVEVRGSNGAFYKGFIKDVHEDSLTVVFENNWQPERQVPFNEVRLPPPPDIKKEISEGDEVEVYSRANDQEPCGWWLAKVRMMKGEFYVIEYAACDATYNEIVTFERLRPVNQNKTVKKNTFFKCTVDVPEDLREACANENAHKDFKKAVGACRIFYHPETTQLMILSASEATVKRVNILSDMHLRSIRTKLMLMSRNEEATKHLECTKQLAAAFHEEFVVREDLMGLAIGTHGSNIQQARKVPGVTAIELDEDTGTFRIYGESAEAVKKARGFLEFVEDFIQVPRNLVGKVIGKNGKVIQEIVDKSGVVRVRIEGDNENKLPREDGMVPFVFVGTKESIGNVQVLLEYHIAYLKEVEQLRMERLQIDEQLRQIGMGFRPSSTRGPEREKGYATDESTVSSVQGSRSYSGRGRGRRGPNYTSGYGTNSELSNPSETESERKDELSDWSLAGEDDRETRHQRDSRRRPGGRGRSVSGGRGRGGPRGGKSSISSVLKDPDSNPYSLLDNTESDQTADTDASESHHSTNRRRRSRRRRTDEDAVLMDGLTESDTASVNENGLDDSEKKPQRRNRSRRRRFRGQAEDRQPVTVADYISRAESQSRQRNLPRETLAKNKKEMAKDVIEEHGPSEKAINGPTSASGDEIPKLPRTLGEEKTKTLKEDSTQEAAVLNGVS

These are yes or no findings as the source states them, for the method shown. In cells and extracts the contact can be indirect. A yes stands for co-enrichment or nearness to the bait. Other partners may have been found.

With “fragile-X mental retardation autosomal 1 (FXR1) (from UniProt Q61584 1-677)”, the binding entry is reported as “binds”.

The record behind these values is publication PMC10039029.
